Laboratory results published in doi:10.1101/181503.

Biological target: FLAG-ATGL (adipose triglyceride lipase) (not stated (human or mouse cDNA cloned))
Assay: co-IP

- binding: binds
B1: hypoxia-inducible gene 2 (HIG2), endogenous (protein, UniProt Q9Y5L2 1-63)
chain: MKHVLNLYLLGVVLTLLSIFVRVMESLEGLLESPSPGTSWTTRSQLANTEPTKGLPDHPSRSM

These are yes or no findings as the source states them, for the method shown. Binding seen in cells or lysates may run through a third protein. Binding can be weak; no strength is given.
